According to patent publication US20260199497A1 (priority 2023, published 2026):

Experiment: general procedure: Fmoc solid-phase peptide synthesis; 2-CTC resin; HATU/DIPEA (solution-phase conjugations)
Settings: whole synthesis, scale 3.00 mmol, TFA salt

With “1-(3,5-bis(2-(methylthio)pyrimidin-5-yl)phenyl)-2,5,8,11,14,17,20,23,26,29-decamethyl-1,4,7,10,13,16,19,22,25,28-decaoxo-2,5,8,11,14,17,20,23,26,29-decaazahentriacontane-31-carboxylic acid” the isolated mass was 1117.1 mg.
